One experiment concerns the target myc-PICK1 (rat) (UniProt Q9EP80). Briefly: co-IP; HEK293T cells transfected with GFP-Syntabulin and myc-ASIC2a or myc-ASIC1a together with myc-PICK1; immunoprecipitated with GFP antibody.
For experiment [1], the target named is endogenous PICK1 (mouse brain homogenate) (mouse (endogenous in mouse brain)) (UniProt Q62083). Briefly: co-IP; endogenous proteins, mouse brain homogenate, with syntabulin or PICK1 antibodies.

Amino acid sequences for entries named in this document (tags omitted).
UniProt Q9EP80: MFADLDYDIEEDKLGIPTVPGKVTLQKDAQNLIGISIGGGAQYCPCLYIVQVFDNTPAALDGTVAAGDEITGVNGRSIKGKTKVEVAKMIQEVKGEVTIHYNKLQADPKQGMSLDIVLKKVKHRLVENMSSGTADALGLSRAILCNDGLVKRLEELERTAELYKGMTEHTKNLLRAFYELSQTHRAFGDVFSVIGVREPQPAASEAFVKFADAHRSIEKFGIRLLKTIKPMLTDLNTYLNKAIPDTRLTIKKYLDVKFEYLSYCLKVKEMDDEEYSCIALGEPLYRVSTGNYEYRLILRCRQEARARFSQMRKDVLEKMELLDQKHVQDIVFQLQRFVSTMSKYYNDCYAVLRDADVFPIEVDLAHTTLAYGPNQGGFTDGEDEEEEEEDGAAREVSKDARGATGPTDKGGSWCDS
UniProt Q62083: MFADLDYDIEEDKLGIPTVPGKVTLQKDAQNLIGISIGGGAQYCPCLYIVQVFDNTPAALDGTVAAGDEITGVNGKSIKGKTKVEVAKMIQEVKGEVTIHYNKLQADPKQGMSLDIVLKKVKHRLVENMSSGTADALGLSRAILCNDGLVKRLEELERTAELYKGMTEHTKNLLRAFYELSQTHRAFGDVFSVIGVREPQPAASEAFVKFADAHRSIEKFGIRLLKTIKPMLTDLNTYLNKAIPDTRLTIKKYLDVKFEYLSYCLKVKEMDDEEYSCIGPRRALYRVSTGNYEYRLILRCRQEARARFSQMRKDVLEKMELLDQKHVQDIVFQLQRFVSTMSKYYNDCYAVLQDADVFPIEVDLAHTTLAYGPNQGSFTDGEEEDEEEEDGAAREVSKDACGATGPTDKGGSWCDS

Results are given in words; binding and its absence hold for the method and conditions named. In cells and extracts the contact can be indirect. Some entries that bind do so weakly or less than the wild type. For part of these data: Where a sequence is shown, tags or fusion partners need not be part of it.

Turning to “myc-ASIC2a (from UniProt Q16515-1 1-512) (receptor)”, in the experiment with myc-PICK1 (rat), the binding entry is “binds”.

B1: endogenous syntabulin (mouse brain homogenate) (protein, UniProt Q8BHS8 1-665)
chain: MGPLRESKKEQRVQHQEKEISRSRIPRLILRPHRPQQQQQQQNKVSPASESPFSEEESREFNPSSSGRSARTISSNSFCSDDTGCPSSQSVSPVKTPSDTGHSPIGFCPGSDEDFTRKKCRIGMVGEGSIQSARHKKEPKGGIIKPGSEADFSSSSSTGSISAPEVHMSTTGNKRASFSRNRGPHGRSNGASSHKSGSSPPSPREKDLVSMLCRNPLSPSNIHPSYAPSSPSSSNSGSYKGSDCSPVMRRSGRYMSCGENHGVKPPNPEQYLTPLQQKEVTVRHLRTKLKESERRLHERESEIMELKSQLARMREDWIEEECHRVEAQLALKEARKEIKQLKQVIETMRSSLADKDKGIQKYFVDINIQNKKLESLLQSMEMAHNSSLRDELCLDFSFDSPEKSLPLSSTFDKLPDGLSLEEQITEEGADSELLVGDSMAEGTDLLDEMVTATTTESSGLEFVHSTPGPQALKALPLVSHEEGIAVMEQAVQTDVVPFSPAISELIQSVLKLQDYCPTSSASPDESGADSMESFSESISALMLDLTPRSPNSAILLSPVEIPFSKGAMEAHANRLMRELDFAAYTEERLDSVLSLSQGSVVRQYWSSNFLVDLLAVAAPVVPTVLWAFSTQRGGTDPVYNIGALLRGCCVVALHSLRRTAFHMKT
Turning to B1, the binding result in experiment [1] was “no binding”.

B2: myc-ASIC1a (receptor, UniProt P78348-2 1-528)
chain: MELKAEEEEVGGVQPVSIQAFASSSTLHGLAHIFSYERLSLKRALWALCFLGSLAVLLCVCTERVQYYFHYHHVTKLDEVAASQLTFPAVTLCNLNEFRFSQVSKNDLYHAGELLALLNNRYEIPDTQMADEKQLEILQDKANFRSFKPKPFNMREFYDRAGHDIRDMLLSCHFRGEVCSAEDFKVVFTRYGKCYTFNSGRDGRPRLKTMKGGTGNGLEIMLDIQQDEYLPVWGETDETSFEAGIKVQIHSQDEPPFIDQLGFGVAPGFQTFVACQEQRLIYLPPPWGTCKAVTMDSDLDFFDSYSITACRIDCETRYLVENCNCRMVHMPGDAPYCTPEQYKECADPALDFLVEKDQEYCVCEMPCNLTRYGKELSMVKIPSKASAKYLAKKFNKSEQYIGENILVLDIFFEVLNYETIEQKKAYEIAGLLGDIGGQMGLFIGASILTVLELFDYAYEVIKHKLCRRGKCQKEAKRSSADKGVALSLDDVKRHNPCESLRGHPAGMTYAANILPHHPARGTFEDFTC
B2: in the experiment with myc-PICK1 (rat), the binding result is “binds”.
